These are yes or no findings as the source states them, for the method shown. In cells and extracts the contact can be indirect. Binding can be weak; no strength is given.
Biological target: Dynein light chain type 1 (DYNLT1) (human (endogenous in iPSC-aCMs)) (UniProt P63172)
Assay: co-IP; IP of endogenous DYNLT1 from iPSC-aCM lysate with anti-DYNLT1 antibody or control IgG, Protein A/G magnetic beads; Western blot for TMCO1 and DYNLT1; three independent experiments

Protein sequences, listed by entry. Tags and fused reporters are not part of them. Lines headed by an entry give the natural chain unless they say otherwise; changes in a name come on top.
UniProt P63172: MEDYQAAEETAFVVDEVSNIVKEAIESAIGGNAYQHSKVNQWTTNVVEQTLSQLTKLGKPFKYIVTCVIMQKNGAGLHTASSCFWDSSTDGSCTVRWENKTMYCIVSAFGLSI
UniProt Q9UM00: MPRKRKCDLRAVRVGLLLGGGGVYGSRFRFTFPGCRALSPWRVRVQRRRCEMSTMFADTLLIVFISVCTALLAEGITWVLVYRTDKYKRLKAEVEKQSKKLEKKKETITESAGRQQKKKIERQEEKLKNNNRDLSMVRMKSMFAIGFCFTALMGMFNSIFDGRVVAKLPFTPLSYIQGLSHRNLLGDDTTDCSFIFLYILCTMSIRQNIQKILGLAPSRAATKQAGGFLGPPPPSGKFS

In the case of TMCO1 (from UniProt Q9UM00), the binding was “binds”.
